Data published in article PMC4805248.
No signal at the amounts used counts as a negative. Protein sequences can lack the tags named with them. For part of these data: The exact form of at least one protein or probe is not confirmed. For part of these data: A weaker result is weaker than the reference pair of the same experiment.

Assays:
[1] = biological target: T1, PgMntR (Porphyromonas gingivalis W50 (W83 locus PG1044)) (UniProt Q7MVL0); test: EMSA; conditions: EMSA: 1 nM biotinylated DNA, 700-1000 nM protein, 90 mM Bis-Tris borate pH 6.8 (1 mM TCEP, 5 mM DTT) or 10 mM Tris-Cl pH 7.5 or Tris-acetate pH 6.8, 50 mM KCl, recombinant protein, residues 1-310, protein details: His-tag cleaved by HRV 3C, N-terminal GPG left, label: 5' biotin on both primers, probe letters rebuilt from the primers and the genome
T1 sequence (looked up): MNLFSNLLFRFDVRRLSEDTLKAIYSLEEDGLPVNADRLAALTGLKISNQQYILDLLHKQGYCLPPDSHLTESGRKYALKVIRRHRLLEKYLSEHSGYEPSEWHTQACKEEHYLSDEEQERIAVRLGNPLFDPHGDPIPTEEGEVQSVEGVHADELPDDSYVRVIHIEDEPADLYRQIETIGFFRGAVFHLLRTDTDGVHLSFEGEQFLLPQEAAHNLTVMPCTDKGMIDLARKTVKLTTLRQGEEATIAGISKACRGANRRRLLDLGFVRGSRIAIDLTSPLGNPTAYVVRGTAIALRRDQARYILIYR

[2] = biological target: T2, PgMntR ΔFeoA2 (Porphyromonas gingivalis W50) (UniProt Q7MVL0); test: EMSA; conditions: EMSA: 1 nM biotinylated DNA, 700-1000 nM protein, 90 mM Bis-Tris borate pH 6.8 (1 mM TCEP, 5 mM DTT) or 10 mM Tris-Cl pH 7.5 or Tris-acetate pH 6.8, 50 mM KCl, recombinant protein, protein details: His-tag cleaved, N-terminal GPG left, label: 5' biotin on both primers, probe letters rebuilt from the primers and the genome
T2 sequence (looked up, limits assumed): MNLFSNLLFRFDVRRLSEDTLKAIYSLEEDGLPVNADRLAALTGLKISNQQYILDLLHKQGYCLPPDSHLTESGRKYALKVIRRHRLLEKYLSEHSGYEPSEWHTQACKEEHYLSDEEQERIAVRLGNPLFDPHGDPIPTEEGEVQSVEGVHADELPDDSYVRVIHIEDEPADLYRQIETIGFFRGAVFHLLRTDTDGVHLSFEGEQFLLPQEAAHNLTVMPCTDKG

Sequence: GCTTCTATAACTTCTATTATTACCGAAGTGTTCGGTCTGTTGGCCTGTGGCACAACGTTTTCAGTATGACAAAGGTGCTTATTTTATCGAAGAATCCGTCAAACTGCAGGCTCTCCTGTGCTATTTTACCTGCATTGAGGTATCCGGAGGCGGAGTTGCTTCTACAAGATCGTTTCCACTTTCTTCCCTGACTATTCCGGTCATTGACAGACTGAAAAATACGTACCAAAAAAGTTTTCAACAACGAAGATGAGTTTGGAATGATTCCAAATAAGCACCTGAAAGGAAGACGATTTCGAAGTCAAAAAGGCAAGAAAAGGAAGTTTTTCAGGTAGAAACATGACTTTTGGAAAGAAGATAACGATTTATATACAAATCATTTACG (double strand) [P1 (promoter region upstream of pgmntR/FB2 operon)]
- binding result ([1]; Mn2+, pH 6.8, reducing, binding increased over apo): binds
- binding result ([1]; Mn2+, pH 7.5 Tris, concentration dependent 750-1000 nM, complete at >=950 nM): binds
- binding result ([1]; higher Fe2+ (up to 40 uM), pH 6.8, reducing, complex dissociated): binds more weakly
- binding result ([1]; low Fe2+, pH 6.8, reducing, little effect): binds
- binding result ([1]; no metal, 700 nM protein, pH 6.8, reducing, lower affinity than with Mn2+): binds
- binding result ([1]; no metal, pH 7.5 Tris): binds
- binding result ([1]; up to 1 mM EDTA, 700 nM protein (apo)): binds
- binding result ([2]; 20 uM Fe2+, Tris-acetate pH 6.8): no binding
- binding result ([2]; Mn2+): no binding
- binding result ([2]; no metal): no binding

Sequence: GGTTCATATCAATGTAGATACATTGGCTGCTTTGCTGAAAGACATAGAACTGACAGCCGTGGAATTGAATTTCAACTGTTGTATCACACGTGCCGCAGACCTGCTGTCAGCATTCTCTGCATATGTCAAAAAGGTTGGTGCCGATCCGAATAAATGTCATGGTTCGGTCAGCTACGACCCGTTCAAAAAGCAGCTCGTCCGCGGCGTATCCAATCCCGATTGGGTGAAGATGACACTCCCCGTCATGGATGCTGCACGCGAACTGCCTGCTTTCCGGGTGCTCAATGTAAATGCCGTGAATCTGTCCGATGCCGGCGCATTCATTACCCAAGAGCTGGGATATGCTTTGGCTTGGGGCGCAGAGCTGTTGGACAAGCTGACCGAT (double strand) [C1 (internal PG1656)]
- binding result ([1]; Mn2+, pH 7.5 Tris): no binding
- binding result ([1]; no metal, 700 nM protein, pH 6.8, reducing): no binding
